Measured values as given in PubChem BioAssay AID504834 (National Center for Advancing Translational Sciences (NCATS), 2011).
The campaign covered roughly 320,000 compounds. About 22,000 (6.9%) were called active. This list was built around the results that the source calls inconclusive (neither active nor inactive); the mix of calls is not that of the screen. The call rests on the fitted dose curve; in most records, active means well fitted inhibition curve with a large enough effect; inconclusive means small, poorly fitted or top-dose-only effect, or another doubt; inactive means no such curve, though single readings can be large or run the other way. Where the call is inconclusive, the potency comes from a doubtful curve fit.

Test: Primary qHTS for delayed death inhibitors of the malarial parasite plastid, 96 hour incubation
Details: P. falciparum luciferase reporter growth; series mostly up to 28.7 µM; activity change, negative = inhibition: at the top concentration
Summary of the method: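 Parasite growth measured via integrated firefly luciferase reporter in P. falciparum. Infected erythrocytes at 2% hematocrit, 0.05% parasitemia final were treated 96 hours at 37 C under 5% CO2, and luminescence was read.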
On the % scale 0 is the no-effect control and ±100 the full control effect; potency means the concentration at half of the fitted maximal effect.

Row | SMILES | Potency | activity change, negative = inhibition
1 | O=C(c1cc(-c2ccc(Cl)cc2)nc2ccccc12)N1CCC1 | inconclusive: 11.7 µM [inhibitor, single point] | 
2 | Cc1cccc(NC(=O)c2cnn(-c3ccccc3)c2C)c1C |  | inactive: 16.3%
3 | O=C(CCl)N1c2ccccc2CCc2ccccc21 | inconclusive: 10.4 µM [inhibitor, single point] | 
4 | COCCN1Cc2cccc(C(=O)Nc3cccc(C)c3C)c2C1=O | inconclusive: 18.5 µM [inhibitor, single point] | 
5 | COc1ccc(-c2nonc2NC(=O)c2oc3ccccc3c2C)cc1OC | active: 10.4 µM | 
6 | COc1ccc2c(c1)CC[C@@H]1[C@@H]2CC[C@]2(C)[C@@H](C(C)=O)C[C@@H]12 |  | inactive: 36.5%
7 | Cc1ccc2nc(NCc3ccccc3)[nH]c2c1 | active: 1.17 µM | 
8 | Clc1ccc(CN2C3=NCCCN3c3ccccc32)c(Cl)c1 | active: 1.04 µM | 
9 | O=S(=O)(c1cccs1)N1CCC2(CC1)OCCO2 | active: 13.1 µM | 
10 | O=C1NC(=O)N(Cc2ccccc2)C(=O)/C1=C/c1cnn(-c2ccccc2)c1 |  | inactive: 379%
11 | COc1ccc(CC(=O)NC(C)c2ccc(S(N)(=O)=O)cc2)cc1S(=O)(=O)N1CCOCC1 (stereo not given) |  | inactive: -34.8%
12 | CC(C)N=c1cc2n(-c3ccc(Cl)cc3)c3ccccc3nc-2cc1Nc1ccc(Cl)cc1 | inconclusive: 5.1 µM [inhibitor, single point] | 
13 | O=C(O)CCC(=O)NNC(=O)c1cccc(Br)c1 | inconclusive: 4.15 µM [inhibitor, single point] | 
14 | O=C(NC1CCCCCC1)c1c2c(nc3ccccc13)CCN(Cc1ccccc1)C2 |  | inactive: -29.5%
15 | COc1ccc(-c2csc3ncnc(N4CCN(c5ccccc5Cl)CC4)c23)cc1 | inconclusive: 3.7 µM [inhibitor, single point] | 
16 | CC(=O)N/C(=N/c1nc(C)cc(C)n1)Nc1cccc(C)c1 |  | inactive: -16.1%
17 | Cc1c(NC(=O)N(C)C)c(=O)n(-c2ccccc2)n1C | inconclusive: 0.0329 µM [inhibitor, full curve, poor fit] | 
18 | O=C(Nc1ccc(S(=O)(=O)Nc2ncccn2)cc1)c1ccc(Br)o1 | inconclusive: 18.5 µM [inhibitor, single point] | 
19 | CCC(=O)c1cc2c(cc1NC(=O)c1cccs1)OCCO2 | inconclusive: 10.4 µM [inhibitor, single point] | 
20 | N=C(N=C(N)N)N1CCc2ccccc21 |  | inactive: 2.67%
21 | COc1cc([N+](=O)[O-])cc(/C=N/NC(=O)c2ccc(NC(=O)c3ccc(C)cc3)cc2)c1O |  | inactive: 13.4%
22 | Cn1c(=O)n(C)c2cc(NS(=O)(=O)c3ccc(C(C)(C)C)cc3)ccc21 |  | inactive: -2.03%
23 | COc1ccc(N2C(=O)[C@@H]3[C@H](C2=O)[C@H](C(C)=O)N2c4ccccc4C=C[C@@H]32)cc1 | inconclusive: 0.828 µM [inhibitor, partial curve] | 
24 | O=C(O)CCCC(=O)NNc1nc(-c2ccccc2)c2cc(Cl)ccc2n1 | inconclusive: 18.5 µM [inhibitor, single point] | 
25 | CC1CC(C)(C)CC2(C1)NC(=O)N(CC(=O)N(Cc1ccccc1)c1ccccc1)C2=O (stereo not given) | inconclusive: 11.7 µM [inhibitor, partial curve, poor fit] | 

Copied from above, entries 9–14
Row | SMILES | Potency | activity change, negative = inhibition
9 | O=S(=O)(c1cccs1)N1CCC2(CC1)OCCO2 | active: 13.1 µM | 
10 | O=C1NC(=O)N(Cc2ccccc2)C(=O)/C1=C/c1cnn(-c2ccccc2)c1 |  | inactive: 379%
11 | COc1ccc(CC(=O)NC(C)c2ccc(S(N)(=O)=O)cc2)cc1S(=O)(=O)N1CCOCC1 (stereo not given) |  | inactive: -34.8%
12 | CC(C)N=c1cc2n(-c3ccc(Cl)cc3)c3ccccc3nc-2cc1Nc1ccc(Cl)cc1 | inconclusive: 5.1 µM [inhibitor, single point] | 
13 | O=C(O)CCC(=O)NNC(=O)c1cccc(Br)c1 | inconclusive: 4.15 µM [inhibitor, single point] | 
14 | O=C(NC1CCCCCC1)c1c2c(nc3ccccc13)CCN(Cc1ccccc1)C2 |  | inactive: -29.5%

(next part)

Row | SMILES | Potency | activity change, negative = inhibition
26 | Cc1ccc(NC(=O)C2CC(=O)n3c(nc4ccccc43)N2)cc1C (stereo not given) | inconclusive: 0.415 µM [inhibitor, partial curve, poor fit] | 
27 | N#CC(c1ccc(Cl)nn1)c1c(F)cccc1Cl (stereo not given) |  | inactive: 0.817%
28 | Cc1c(C(=O)N2CCN(c3ccc([N+](=O)[O-])cc3)CC2)oc2ccccc12 | inconclusive: 16.5 µM [inhibitor, single point] | 
29 | COc1cc(C(=O)Nc2ccc3c(c2)Cc2ccccc2-3)cc(OC)c1OC | inconclusive: 3.29 µM [inhibitor, partial curve, poor fit] | 
30 | O=C(NCCCN1CCOCC1)c1cccc(S(=O)(=O)Nc2ccccc2Cl)c1 |  | inactive: 2.64%
31 | OCC(CO)(CO)n1cnnn1 | inconclusive: 18.5 µM [inhibitor, single point] | 
32 | Cn1nc(OCC(=O)O)cc1C(F)(F)F |  | inactive: 16.6%
33 | O=S(=O)(c1ccc(NC(=S)NN=C(Cc2ccccc2)Cc2ccccc2)cc1)N1CCOCC1 | inconclusive: 2.08 µM [inhibitor, full curve, poor fit] | 
34 | Fc1ccccc1NC(=S)N1CCN(C/C=C/c2ccccc2)CC1 | active: 0.586 µM | 
35 | COc1ccc(CCN(Cc2cccs2)S(=O)(=O)c2ccc(S(=O)(=O)N(C)C3CCCCC3)cc2)cc1OC | inconclusive: 11.7 µM [inhibitor, single point] | 
36 | C=C(C)CSc1nc2ncccc2[nH]1 |  | inactive: -21.6%
37 | O=C(CCc1ccccc1)NNC(=O)COc1ccc(Br)cc1 |  | inactive: 3.88%
38 | Fc1cc(Cl)ccc1NC1=NCCCCC1 |  | inactive: 14.4%
39 | COc1cccc(-c2nnc(SCC(=O)OC(C)C)n2Cc2ccco2)c1 | active: 7.38 µM | 
40 | O=C(COc1ccc(Cl)cc1)Nc1ccccc1CO | inconclusive: 13.1 µM [inhibitor, single point] | 
41 | CN(c1ccccc1)S(=O)(=O)c1nnc(NC(=O)c2ccco2)s1 | active: 3.7 µM | 
42 | CC(Oc1ccc(Cl)cc1)/C(N)=N/O (stereo not given) | inconclusive: 13.1 µM [inhibitor, single point] | 
43 | CCOC(=O)C1CCN(C(=O)c2cc(C(C)(C)C)nn2Cc2ccccc2)CC1 | active: 1.17 µM | 
44 | COc1ccccc1C(=O)NCCC(=O)Nc1ncccc1C | inconclusive: 9.28 µM [inhibitor, partial curve] | 
45 | CCCC(C(=O)NCc1ccco1)N(C(=O)CNS(=O)(=O)c1ccccc1)C1CCCC1 (stereo not given) | active: 10.4 µM | 
46 | NS(=O)(=O)c1ccc(CNC(=S)Nc2ccc(F)c(Cl)c2)cc1 | inconclusive: 18.5 µM [inhibitor, single point] | 
47 | CCOC(=O)C1=C(C)NC(C)=C(C(=O)OCC)C1c1cccs1 | active: 9.28 µM | 
48 | O=C(Cc1ccc(S(=O)(=O)N2CCOCC2)s1)NCCC(c1ccccc1)c1ccccc1 | active: 7.38 µM | 
49 | CC(C)/C(=N\NS(=O)(=O)c1ccc(Br)cc1)c1cccs1 | inconclusive: 18.5 µM [inhibitor, single point] | 
50 | Cc1ccc(NC(=O)c2cc(-c3cccs3)nc3ccccc23)nc1 | inconclusive: 11.7 µM [inhibitor, single point] | 

Row | SMILES | Potency | activity change, negative = inhibition
51 | CC1(c2ccc(OC(F)F)cc2)NC(=O)N(CC(=O)Nc2ccc(Cl)cc2F)C1=O (stereo not given) |  | inactive: -4.59%
52 | COc1ccc2c(=O)c(C)c(-c3ccccc3)oc2c1CN(C)C | inconclusive: 6.01 µM [inhibitor, partial curve] | 
53 | Cc1ccc(OCC(=O)Nc2cccc(O)c2)cc1C |  | inactive: -0.522%
54 | COc1ccc(-c2cn(-c3ccc(Br)cc3)c3[n+]2CCS3)cc1 | inconclusive: 0.0828 µM [inhibitor, full curve, poor fit] | 
55 | CN(C)c1ccc(/C=C(\NC(=O)c2ccccc2)C(=O)NCCCN2CCOCC2)cc1 |  | inactive: 14.8%
56 | CCN(CC)S(=O)(=O)c1ccc(C(=O)NCc2ccc3c(c2)cc(C)n3C)cc1 | inconclusive: 8.28 µM [inhibitor, partial curve, poor fit] | 
57 | O=C(c1ccc(N2CCCCS2(=O)=O)cc1)N1CCN(c2ccc(N3CCOCC3)nn2)CC1 | inconclusive: 18.5 µM [inhibitor, single point] | 
58 | C[C@@H]1C=C(C(=O)NCc2ccccc2)O[C@H](OCc2ccc(CO)cc2)C1 | inconclusive: 10.4 µM [inhibitor, partial curve, poor fit] | 
59 | Cc1ccc(S(=O)(=O)N2CCN(C(C(=O)Nc3ccc(F)cc3)c3ccccc3)CC2)cc1 (stereo not given) | inconclusive: 16.5 µM [inhibitor, single point] | 
60 | NC(=O)c1ccsc1NC(=O)CCS(=O)(=O)c1ccccc1 |  | inactive: -23.6%
61 | CN(C)c1nc(NCc2ccccc2)nc(N/N=C/c2ccccc2F)n1 |  | inactive: 28.2%
62 | CCOCCCNC1=C(Cl)C(=O)c2ccccc2C1=O | inconclusive: 4.65 µM [inhibitor, partial curve, poor fit] | 
63 | CCOc1ccc(C)cc1S(=O)(=O)n1cnc2ccccc21 | inconclusive: 11.7 µM [inhibitor, single point] | 
64 | CC1=NN(c2ccc(C)c(C)c2)C(=O)/C1=C\C=C\c1ccc([N+](=O)[O-])o1 | inconclusive: 18.5 µM [inhibitor, single point] | 
65 | CNC(=O)CCc1[nH]c2ccccc2c1Sc1ccccc1 | active: 5.22 µM | 
66 | O=C(CNCc1cccs1)Nc1ccc(N2CCCCCC2)cc1 |  | inactive: 13.3%
67 | COc1cc(/C=N/NC(=O)c2cccc(N3CCCC3=O)c2)ccc1O | inconclusive: 18.5 µM [inhibitor, single point] | 
68 | CN1C(=O)C(O)(CC(=O)c2ccccc2O)c2cc(Br)ccc21 (stereo not given) | active: 1.17 µM | 
69 | O=c1[nH]c(Cc2cccc(C(F)(F)F)c2)nc2ccccc12 |  | inactive: -5.23%
70 | CC(=O)Nc1ccc(NC(=O)CSc2nnc(-c3cc(C)[nH]n3)n2N)cc1 | inconclusive: 14.7 µM [inhibitor, partial curve, poor fit] | 
71 | CCSc1nc2ccccc2n1S(=O)(=O)c1ccccc1 | inconclusive: 13.1 µM [inhibitor, single point] | 
72 | O=C(CN1CCN(C(=O)C2CCCO2)CC1)Nc1ccc(F)cc1 (stereo not given) |  | inactive: -6.73%
73 | COc1ccccc1CNC(=O)CNC(=O)c1cn(-c2ccccc2OC)c(=O)c2ccccc12 | inconclusive: 13.1 µM [inhibitor, single point] | 
74 | CC(C)(C)NS(=O)(=O)c1ccc(NS(C)(=O)=O)cc1 |  | inactive: -1.98%
75 | COC1=CC(=Cc2c(N)n3nc(CC(=O)N4CCCCC4)sc3nc2=O)C=C(OC)C1=O | inconclusive: 18.5 µM [inhibitor, single point] | 
